For five molecules, binding results are on record in publication PMC3572085.

The target in test [1] is T1, HA-CRY1 WT (wild type), transiently expressed in COS7 (mouse) (UniProt P97784).
T1 sequence: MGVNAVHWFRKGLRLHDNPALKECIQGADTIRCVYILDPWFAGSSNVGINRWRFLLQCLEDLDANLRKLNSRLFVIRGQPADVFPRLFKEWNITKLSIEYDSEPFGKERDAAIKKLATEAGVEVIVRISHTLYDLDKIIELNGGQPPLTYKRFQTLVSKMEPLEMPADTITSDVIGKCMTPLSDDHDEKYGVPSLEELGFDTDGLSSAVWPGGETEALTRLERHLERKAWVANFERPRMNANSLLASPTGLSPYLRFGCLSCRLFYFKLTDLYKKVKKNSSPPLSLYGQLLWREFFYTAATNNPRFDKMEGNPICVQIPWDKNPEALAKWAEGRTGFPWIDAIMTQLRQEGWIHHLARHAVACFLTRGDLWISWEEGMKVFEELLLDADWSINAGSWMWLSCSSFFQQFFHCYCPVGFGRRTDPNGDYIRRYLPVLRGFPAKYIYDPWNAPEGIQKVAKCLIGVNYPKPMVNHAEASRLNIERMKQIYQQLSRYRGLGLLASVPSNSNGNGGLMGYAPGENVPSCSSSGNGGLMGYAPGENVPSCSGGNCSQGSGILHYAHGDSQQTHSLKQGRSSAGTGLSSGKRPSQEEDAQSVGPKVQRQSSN
Description: co-IP; COS7 transiently co-expressing HA-CRY1 WT and truncated GFP-tagged TIM proteins; IP anti-HA, blot anti-GFP.

In test [2] the target is T2, Flag-CHK1 (UniProt O14757).
T2 sequence: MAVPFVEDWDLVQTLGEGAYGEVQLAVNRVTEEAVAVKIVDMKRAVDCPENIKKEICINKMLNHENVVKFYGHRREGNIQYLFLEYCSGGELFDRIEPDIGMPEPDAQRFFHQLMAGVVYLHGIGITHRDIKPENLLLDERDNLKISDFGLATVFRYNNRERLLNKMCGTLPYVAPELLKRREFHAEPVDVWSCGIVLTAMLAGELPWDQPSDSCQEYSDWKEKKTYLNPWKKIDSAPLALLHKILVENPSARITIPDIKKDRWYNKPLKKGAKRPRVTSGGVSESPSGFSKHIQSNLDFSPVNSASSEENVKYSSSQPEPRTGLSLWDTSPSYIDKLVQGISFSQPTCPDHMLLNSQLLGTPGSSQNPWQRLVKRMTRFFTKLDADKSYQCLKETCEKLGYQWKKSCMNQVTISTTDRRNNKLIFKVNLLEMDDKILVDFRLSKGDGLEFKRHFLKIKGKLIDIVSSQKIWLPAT
Description: co-IP; cells transfected with Flag-CHK1 and TIM deletion constructs (HEK293 by the legend, COS7 by the text); IP anti-Flag, blot anti-V5 and anti-GFP.

For test [3], the target named is T3, HA-CRY1 WT stably expressed in NIH 3T3^HA-CRY1 cells (mouse) (UniProt P97784).
T3 sequence: T1 sequence
Nature of the test: co-IP; anti-HA immunoprecipitation of HA-CRY1 from lysates of NIH 3T3^HA-CRY1 cells (buffer with increasing amounts of TritonX; plain NIH3T3 as control), blot with anti-TIM.

The target in test [4] is T4, l-TIM-V5, C-terminally V5 tagged full length mouse TIMELESS, TIM(1–1198)-V5 (mouse) (UniProt Q9R1X4).
T4 sequence: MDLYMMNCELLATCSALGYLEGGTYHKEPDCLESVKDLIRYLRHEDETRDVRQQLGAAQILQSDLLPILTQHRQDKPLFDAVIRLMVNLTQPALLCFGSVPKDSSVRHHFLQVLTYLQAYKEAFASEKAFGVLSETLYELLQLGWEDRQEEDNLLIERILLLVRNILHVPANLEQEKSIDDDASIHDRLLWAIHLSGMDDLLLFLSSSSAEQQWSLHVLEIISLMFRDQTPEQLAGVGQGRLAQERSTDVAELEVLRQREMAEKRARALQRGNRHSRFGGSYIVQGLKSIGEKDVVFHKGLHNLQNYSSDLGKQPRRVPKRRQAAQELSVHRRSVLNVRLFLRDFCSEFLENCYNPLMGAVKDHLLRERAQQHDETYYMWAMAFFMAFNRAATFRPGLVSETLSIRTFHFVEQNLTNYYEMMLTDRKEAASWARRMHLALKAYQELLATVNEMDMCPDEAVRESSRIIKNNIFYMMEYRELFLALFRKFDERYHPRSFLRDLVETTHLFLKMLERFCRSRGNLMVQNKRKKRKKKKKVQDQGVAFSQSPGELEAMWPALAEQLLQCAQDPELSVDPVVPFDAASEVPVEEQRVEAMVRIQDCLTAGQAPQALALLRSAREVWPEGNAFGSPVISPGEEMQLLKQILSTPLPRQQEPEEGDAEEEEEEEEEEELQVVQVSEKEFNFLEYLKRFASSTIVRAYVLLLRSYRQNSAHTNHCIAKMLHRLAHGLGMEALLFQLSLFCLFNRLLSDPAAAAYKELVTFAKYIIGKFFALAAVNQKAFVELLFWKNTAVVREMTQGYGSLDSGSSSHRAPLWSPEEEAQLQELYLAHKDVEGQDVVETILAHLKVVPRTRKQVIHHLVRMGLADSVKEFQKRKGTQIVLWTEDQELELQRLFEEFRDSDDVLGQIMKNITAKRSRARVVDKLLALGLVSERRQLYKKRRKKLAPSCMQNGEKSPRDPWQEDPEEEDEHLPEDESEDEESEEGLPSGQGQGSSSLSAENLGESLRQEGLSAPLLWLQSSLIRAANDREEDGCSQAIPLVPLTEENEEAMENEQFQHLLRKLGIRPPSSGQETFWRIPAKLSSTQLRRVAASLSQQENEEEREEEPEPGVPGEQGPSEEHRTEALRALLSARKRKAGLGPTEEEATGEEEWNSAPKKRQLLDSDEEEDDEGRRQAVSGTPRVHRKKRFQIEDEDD
Description: co-IP; COS7 transiently co-expressing l-TIM-V5 and HA-CRY1 (wild type or mutant); IP anti-V5, blot anti-HA.

Test [5] has as its target T4, l-TIM-V5, C-terminally V5 tagged full length mouse TIMELESS, TIM(1–1198)-V5 (mouse). Description: co-IP; COS7 co-expressing all three of HA-CRY1 (WT or mutNLSc), l-TIM-V5 and PER2-GFP; IP of each with anti-HA, anti-V5 or anti-GFP, blots with the corresponding antibodies.

Results are given in words; binding and its absence hold for the method and conditions named. Binding seen in cells or lysates may run through a third protein. Some results given as binding are weak or reduced against the parent protein; the word gives no strength. Where a sequence is shown, tags or fusion partners need not be part of it.

B1: TIM(1–309)-GFP (domain or fragment, UniProt Q9R1X4 1-309)
chain: MDLYMMNCELLATCSALGYLEGGTYHKEPDCLESVKDLIRYLRHEDETRDVRQQLGAAQILQSDLLPILTQHRQDKPLFDAVIRLMVNLTQPALLCFGSVPKDSSVRHHFLQVLTYLQAYKEAFASEKAFGVLSETLYELLQLGWEDRQEEDNLLIERILLLVRNILHVPANLEQEKSIDDDASIHDRLLWAIHLSGMDDLLLFLSSSSAEQQWSLHVLEIISLMFRDQTPEQLAGVGQGRLAQERSTDVAELEVLRQREMAEKRARALQRGNRHSRFGGSYIVQGLKSIGEKDVVFHKGLHNLQNYSS
As for B1, the binding result in test [1] and in test [2] was “binds” each time.

B2: GFP-TIM(1079–1198) (domain or fragment, UniProt Q9R1X4 1079-1197)
chain: IPAKLSSTQLRRVAASLSQQENEEEREEEPEPGVPGEQGPSEEHRTEALRALLSARKRKAGLGPTEEEATGEEEWNSAPKKRQLLDSDEEEDDEGRRQAVSGTPRVHRKKRFQIEDEDD
On to B2, for which, in test [1], the binding entry is reported as “no binding”.

B3: TIM(1–1079)-GFP (domain or fragment, UniProt Q9R1X4 1-1079)
chain: MDLYMMNCELLATCSALGYLEGGTYHKEPDCLESVKDLIRYLRHEDETRDVRQQLGAAQILQSDLLPILTQHRQDKPLFDAVIRLMVNLTQPALLCFGSVPKDSSVRHHFLQVLTYLQAYKEAFASEKAFGVLSETLYELLQLGWEDRQEEDNLLIERILLLVRNILHVPANLEQEKSIDDDASIHDRLLWAIHLSGMDDLLLFLSSSSAEQQWSLHVLEIISLMFRDQTPEQLAGVGQGRLAQERSTDVAELEVLRQREMAEKRARALQRGNRHSRFGGSYIVQGLKSIGEKDVVFHKGLHNLQNYSSDLGKQPRRVPKRRQAAQELSVHRRSVLNVRLFLRDFCSEFLENCYNPLMGAVKDHLLRERAQQHDETYYMWAMAFFMAFNRAATFRPGLVSETLSIRTFHFVEQNLTNYYEMMLTDRKEAASWARRMHLALKAYQELLATVNEMDMCPDEAVRESSRIIKNNIFYMMEYRELFLALFRKFDERYHPRSFLRDLVETTHLFLKMLERFCRSRGNLMVQNKRKKRKKKKKVQDQGVAFSQSPGELEAMWPALAEQLLQCAQDPELSVDPVVPFDAASEVPVEEQRVEAMVRIQDCLTAGQAPQALALLRSAREVWPEGNAFGSPVISPGEEMQLLKQILSTPLPRQQEPEEGDAEEEEEEEEEEELQVVQVSEKEFNFLEYLKRFASSTIVRAYVLLLRSYRQNSAHTNHCIAKMLHRLAHGLGMEALLFQLSLFCLFNRLLSDPAAAAYKELVTFAKYIIGKFFALAAVNQKAFVELLFWKNTAVVREMTQGYGSLDSGSSSHRAPLWSPEEEAQLQELYLAHKDVEGQDVVETILAHLKVVPRTRKQVIHHLVRMGLADSVKEFQKRKGTQIVLWTEDQELELQRLFEEFRDSDDVLGQIMKNITAKRSRARVVDKLLALGLVSERRQLYKKRRKKLAPSCMQNGEKSPRDPWQEDPEEEDEHLPEDESEDEESEEGLPSGQGQGSSSLSAENLGESLRQEGLSAPLLWLQSSLIRAANDREEDGCSQAIPLVPLTEENEEAMENEQFQHLLRKLGIRPPSSGQETFWRI
B3: the binding result in test [1] is “binds”.

B4: endogenous TIM of NIH 3T3 cells (protein, UniProt Q9R1X4 1-1197)
chain: T4 sequence
Turning to B4, in test [3], the binding entry is recorded as “binds”.

B5: HA-CRY1 WT (wild type), transiently expressed in COS7 (protein, UniProt P97784 1-606)
chain: T1 sequence
In the case of B5, the binding result in test [4] was “binds”; in test [5], “no binding (condition: with co-expressed PER2-GFP)”.
